Measured values taken from the supplement of paper PMC6411743.
± gives the standard deviation of the averaged measurements. The entries are a selection whose mix differs from that of the whole data set. Most entries show no effect beyond the scatter of the controls.

Chains of the proteins cited; added tags and fusions are not shown. Lines headed by an entry give the natural chain unless they say otherwise; changes in a name come on top.
UniProt P11021: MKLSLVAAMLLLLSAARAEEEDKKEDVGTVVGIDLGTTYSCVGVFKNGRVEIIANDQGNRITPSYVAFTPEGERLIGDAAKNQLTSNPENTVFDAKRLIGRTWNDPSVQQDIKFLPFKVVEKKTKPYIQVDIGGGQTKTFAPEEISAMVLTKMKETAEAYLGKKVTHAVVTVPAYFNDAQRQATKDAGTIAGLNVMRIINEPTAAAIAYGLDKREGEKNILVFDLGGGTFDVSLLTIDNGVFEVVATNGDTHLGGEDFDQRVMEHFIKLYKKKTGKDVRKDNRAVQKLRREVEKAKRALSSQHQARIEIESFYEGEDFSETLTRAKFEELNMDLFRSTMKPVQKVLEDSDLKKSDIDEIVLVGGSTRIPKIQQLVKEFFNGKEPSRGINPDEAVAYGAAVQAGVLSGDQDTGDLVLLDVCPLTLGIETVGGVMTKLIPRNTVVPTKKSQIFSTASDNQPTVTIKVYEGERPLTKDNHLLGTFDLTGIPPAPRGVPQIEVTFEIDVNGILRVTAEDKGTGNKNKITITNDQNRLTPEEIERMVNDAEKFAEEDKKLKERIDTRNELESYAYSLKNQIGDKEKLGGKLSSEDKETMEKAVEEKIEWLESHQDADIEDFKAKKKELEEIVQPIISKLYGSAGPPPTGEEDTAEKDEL
UniProt O95857: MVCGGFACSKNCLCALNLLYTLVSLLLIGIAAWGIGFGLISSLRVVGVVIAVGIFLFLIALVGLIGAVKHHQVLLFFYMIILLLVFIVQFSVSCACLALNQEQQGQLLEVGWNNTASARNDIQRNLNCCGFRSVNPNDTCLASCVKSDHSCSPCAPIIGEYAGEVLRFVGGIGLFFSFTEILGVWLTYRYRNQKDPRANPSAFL
UniProt O95747, whole entry, looked up: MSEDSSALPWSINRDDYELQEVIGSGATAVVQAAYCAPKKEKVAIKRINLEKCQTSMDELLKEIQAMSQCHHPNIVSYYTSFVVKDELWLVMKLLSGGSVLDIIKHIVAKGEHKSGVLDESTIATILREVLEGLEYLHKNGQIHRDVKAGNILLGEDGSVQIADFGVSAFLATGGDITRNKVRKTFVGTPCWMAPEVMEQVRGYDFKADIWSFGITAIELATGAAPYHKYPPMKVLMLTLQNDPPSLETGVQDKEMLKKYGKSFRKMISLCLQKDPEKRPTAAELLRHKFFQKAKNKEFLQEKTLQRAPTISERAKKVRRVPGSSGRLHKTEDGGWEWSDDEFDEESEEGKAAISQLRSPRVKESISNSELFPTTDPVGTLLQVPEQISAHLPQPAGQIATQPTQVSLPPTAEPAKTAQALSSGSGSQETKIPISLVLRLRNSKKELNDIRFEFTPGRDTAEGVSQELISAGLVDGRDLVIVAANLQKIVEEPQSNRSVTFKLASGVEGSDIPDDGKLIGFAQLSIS
UniProt P0C7T5: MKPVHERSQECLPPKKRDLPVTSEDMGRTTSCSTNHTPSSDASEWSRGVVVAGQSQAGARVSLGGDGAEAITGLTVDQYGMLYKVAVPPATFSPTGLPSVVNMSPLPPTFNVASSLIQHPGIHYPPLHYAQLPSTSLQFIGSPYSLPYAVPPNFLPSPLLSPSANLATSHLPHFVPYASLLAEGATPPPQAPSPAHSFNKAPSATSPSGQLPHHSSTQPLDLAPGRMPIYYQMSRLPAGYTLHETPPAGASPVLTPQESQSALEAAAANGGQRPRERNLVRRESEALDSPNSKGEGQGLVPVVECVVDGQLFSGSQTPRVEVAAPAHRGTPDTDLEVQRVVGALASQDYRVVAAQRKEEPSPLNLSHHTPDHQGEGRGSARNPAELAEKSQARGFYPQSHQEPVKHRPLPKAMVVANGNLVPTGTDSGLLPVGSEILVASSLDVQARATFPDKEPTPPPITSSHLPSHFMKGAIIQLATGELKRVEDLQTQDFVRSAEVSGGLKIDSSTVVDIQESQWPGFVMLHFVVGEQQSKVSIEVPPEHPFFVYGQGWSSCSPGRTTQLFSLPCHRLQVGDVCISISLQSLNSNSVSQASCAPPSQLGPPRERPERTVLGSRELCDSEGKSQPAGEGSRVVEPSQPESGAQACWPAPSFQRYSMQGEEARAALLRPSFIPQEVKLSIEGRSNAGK
UniProt O95834: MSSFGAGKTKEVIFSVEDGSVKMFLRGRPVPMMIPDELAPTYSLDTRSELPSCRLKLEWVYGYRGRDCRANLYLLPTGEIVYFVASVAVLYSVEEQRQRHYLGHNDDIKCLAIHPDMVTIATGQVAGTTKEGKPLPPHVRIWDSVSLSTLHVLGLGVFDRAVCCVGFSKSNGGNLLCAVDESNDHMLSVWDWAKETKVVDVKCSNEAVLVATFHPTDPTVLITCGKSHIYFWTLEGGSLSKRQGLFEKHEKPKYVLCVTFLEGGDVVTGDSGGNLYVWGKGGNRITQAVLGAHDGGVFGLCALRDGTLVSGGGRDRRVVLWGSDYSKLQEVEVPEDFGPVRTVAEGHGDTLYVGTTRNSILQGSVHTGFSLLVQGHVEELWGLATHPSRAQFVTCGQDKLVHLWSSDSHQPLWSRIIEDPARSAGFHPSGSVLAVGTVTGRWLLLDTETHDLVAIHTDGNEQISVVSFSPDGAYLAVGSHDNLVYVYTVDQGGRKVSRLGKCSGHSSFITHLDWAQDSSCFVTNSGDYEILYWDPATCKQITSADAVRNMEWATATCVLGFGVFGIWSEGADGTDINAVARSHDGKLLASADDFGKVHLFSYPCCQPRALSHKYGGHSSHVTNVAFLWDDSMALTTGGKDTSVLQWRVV
UniProt P11831: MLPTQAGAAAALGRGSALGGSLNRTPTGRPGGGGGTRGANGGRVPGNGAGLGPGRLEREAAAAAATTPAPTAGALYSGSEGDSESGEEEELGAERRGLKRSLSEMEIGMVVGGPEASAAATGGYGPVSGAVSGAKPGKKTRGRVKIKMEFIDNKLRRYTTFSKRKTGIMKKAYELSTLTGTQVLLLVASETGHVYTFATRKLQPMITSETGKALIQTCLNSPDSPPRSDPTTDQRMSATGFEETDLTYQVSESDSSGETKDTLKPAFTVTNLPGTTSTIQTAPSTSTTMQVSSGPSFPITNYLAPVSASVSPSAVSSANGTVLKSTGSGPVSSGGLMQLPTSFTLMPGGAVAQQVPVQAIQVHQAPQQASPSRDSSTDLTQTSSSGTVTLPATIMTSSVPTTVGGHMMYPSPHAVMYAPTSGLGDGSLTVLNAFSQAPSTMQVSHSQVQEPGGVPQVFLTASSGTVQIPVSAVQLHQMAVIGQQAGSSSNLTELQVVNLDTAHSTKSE
UniProt P11171, whole entry: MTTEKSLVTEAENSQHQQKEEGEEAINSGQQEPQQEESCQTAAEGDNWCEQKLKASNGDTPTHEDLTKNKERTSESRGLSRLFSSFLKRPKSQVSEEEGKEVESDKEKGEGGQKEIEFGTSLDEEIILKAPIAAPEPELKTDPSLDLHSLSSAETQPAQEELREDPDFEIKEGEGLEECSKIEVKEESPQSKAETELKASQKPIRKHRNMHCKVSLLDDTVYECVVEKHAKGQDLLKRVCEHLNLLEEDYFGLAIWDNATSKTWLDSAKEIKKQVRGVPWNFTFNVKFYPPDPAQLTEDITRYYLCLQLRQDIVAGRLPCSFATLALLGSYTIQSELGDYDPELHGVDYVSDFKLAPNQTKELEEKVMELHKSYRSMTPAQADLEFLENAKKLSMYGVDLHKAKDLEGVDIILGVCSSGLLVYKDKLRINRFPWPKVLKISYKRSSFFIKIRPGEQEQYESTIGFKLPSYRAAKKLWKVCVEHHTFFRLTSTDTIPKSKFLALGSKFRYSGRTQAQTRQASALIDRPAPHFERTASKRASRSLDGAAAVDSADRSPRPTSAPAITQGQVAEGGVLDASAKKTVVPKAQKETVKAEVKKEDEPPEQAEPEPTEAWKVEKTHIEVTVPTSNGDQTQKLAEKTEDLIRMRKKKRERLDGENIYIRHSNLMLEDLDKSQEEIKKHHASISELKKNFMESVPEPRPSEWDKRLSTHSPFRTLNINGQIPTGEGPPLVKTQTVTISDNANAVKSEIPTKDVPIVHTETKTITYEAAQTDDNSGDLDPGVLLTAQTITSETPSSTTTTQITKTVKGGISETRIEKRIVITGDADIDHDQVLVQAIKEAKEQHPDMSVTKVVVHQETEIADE
UniProt O96020, whole entry: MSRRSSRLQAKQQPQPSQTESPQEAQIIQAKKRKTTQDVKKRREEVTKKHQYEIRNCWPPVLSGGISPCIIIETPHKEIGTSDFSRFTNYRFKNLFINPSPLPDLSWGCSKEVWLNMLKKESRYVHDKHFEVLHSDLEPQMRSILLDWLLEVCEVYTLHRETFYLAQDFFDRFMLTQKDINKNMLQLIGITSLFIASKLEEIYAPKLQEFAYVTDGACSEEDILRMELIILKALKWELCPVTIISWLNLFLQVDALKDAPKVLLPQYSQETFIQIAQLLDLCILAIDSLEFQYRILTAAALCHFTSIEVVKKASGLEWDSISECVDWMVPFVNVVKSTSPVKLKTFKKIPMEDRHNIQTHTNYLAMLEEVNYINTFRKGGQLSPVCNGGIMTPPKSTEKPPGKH
UniProt P05455: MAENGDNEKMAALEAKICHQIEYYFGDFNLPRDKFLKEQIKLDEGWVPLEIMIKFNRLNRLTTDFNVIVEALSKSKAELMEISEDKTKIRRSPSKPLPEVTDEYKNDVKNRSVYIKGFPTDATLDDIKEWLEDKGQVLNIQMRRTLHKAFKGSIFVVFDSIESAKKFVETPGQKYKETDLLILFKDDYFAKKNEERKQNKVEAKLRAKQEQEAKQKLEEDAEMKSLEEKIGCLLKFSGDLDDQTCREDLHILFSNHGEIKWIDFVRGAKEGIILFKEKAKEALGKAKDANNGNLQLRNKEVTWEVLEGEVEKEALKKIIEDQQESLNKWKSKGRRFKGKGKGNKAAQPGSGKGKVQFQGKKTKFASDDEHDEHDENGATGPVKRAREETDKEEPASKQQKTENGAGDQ
UniProt P13073, whole entry: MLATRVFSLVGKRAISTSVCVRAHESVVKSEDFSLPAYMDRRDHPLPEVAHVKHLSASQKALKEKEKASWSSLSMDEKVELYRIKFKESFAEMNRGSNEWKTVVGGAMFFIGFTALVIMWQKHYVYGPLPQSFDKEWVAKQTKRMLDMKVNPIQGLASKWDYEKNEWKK
UniProt O96019, whole entry: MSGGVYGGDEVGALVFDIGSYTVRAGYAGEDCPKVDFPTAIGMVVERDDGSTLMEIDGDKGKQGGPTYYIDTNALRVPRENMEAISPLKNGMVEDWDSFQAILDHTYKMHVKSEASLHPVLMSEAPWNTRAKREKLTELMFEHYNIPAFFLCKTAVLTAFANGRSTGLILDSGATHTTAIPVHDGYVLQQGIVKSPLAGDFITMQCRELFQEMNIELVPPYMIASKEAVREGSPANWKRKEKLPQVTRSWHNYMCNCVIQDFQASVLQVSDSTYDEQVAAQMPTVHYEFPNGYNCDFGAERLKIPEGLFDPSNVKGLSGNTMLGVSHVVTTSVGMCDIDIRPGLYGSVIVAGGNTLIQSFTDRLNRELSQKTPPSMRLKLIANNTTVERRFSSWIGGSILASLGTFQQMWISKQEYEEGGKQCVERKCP
UniProt P11172: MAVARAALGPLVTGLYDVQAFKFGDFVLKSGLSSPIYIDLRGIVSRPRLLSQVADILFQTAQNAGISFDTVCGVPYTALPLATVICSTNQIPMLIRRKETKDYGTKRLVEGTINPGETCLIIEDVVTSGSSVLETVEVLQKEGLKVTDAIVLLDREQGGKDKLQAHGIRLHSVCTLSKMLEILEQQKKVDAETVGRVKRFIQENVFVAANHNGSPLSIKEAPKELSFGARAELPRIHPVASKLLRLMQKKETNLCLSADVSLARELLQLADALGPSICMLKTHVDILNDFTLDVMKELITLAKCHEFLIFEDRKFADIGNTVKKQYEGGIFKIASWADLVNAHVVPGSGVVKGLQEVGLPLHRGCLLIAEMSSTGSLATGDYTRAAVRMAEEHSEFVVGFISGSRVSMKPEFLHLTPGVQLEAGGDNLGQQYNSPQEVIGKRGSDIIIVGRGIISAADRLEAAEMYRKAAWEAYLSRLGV
UniProt P13498: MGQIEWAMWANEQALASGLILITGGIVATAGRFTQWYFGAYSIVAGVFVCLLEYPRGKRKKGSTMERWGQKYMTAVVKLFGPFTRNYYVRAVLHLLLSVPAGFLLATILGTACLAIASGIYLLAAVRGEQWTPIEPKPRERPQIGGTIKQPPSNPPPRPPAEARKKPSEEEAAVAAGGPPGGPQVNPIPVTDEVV
UniProt P14927: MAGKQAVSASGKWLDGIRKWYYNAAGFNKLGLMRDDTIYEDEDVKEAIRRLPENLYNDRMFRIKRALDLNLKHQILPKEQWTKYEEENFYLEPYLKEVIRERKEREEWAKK
UniProt O95983: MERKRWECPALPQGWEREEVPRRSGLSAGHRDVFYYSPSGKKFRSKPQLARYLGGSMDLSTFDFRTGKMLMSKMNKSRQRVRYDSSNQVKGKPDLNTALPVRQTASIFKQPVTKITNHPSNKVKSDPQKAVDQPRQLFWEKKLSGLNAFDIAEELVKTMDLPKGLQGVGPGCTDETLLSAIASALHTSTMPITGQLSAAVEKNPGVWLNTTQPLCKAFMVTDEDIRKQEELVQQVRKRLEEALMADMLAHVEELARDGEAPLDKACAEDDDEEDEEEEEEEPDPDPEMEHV

compound: Nc1ncnc2c1ncn2[C@@H]1O[C@H](COP(=O)(O)OP(=O)(O)NP(=O)(O)O)[C@@H](O)[C@H]1O [adenylyl imidodiphosphate]; experiment: NP40-soluble protein abundance relative to vehicle (solubility fold change) (ratio); higher = more soluble protein in presence of AMP-PNP; conditions: concentration: 0.5mM
Method in brief: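 Across three independent experiments, values are fold changes against the detergent-processed vehicle for each replicate, based on vsn-normalised intensities. The samples were Jurkat crude lysate treated with eight concentrations (0.1 to 10 mM) for 10 min at room temperature and then 3 min at 37 °C. Lysate was solubilised with 0.8% NP40 and benzonase, ultracentrifuged, and the supernatant analysed by TMT-labelled LC-MS/MS.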

Target	NP40-soluble protein abundance
HSPA5 (UniProt P11021)	1.02 ± 0.077
TSPAN13 (UniProt O95857)	0.996 ± 0.023
UniProt O95747	0.994 ± 0.027
ATXN1L (UniProt P0C7T5)	1.03 ± 0.021
ACADS (UniProt P16219)	1.02 ± 0.071
UniProt O95834 and related entries	0.964 ± 0.047
UniProt O95777 and related entries	0.959 ± 0.095
SRF (UniProt P11831)	1.02 ± 0.021
UniProt P11171 and related entries	0.992 ± 0.011
UniProt O96020 and related entries	0.9909 ± 0.002
SSB (UniProt P05455)	1.02 ± 0.052
COX4I1 (UniProt P13073)	1.02 ± 0.0098
UniProt O96019 and related entries	0.968 ± 0.069
UMPS (UniProt P11172)	1.01 ± 0.025
UniProt P08236 and related entries	0.976 ± 0.024
CYBA (UniProt P13498)	1.06 ± 0.094
UQCRB (UniProt P14927)	1.02 ± 0.11
UniProt P00338-2|P00338-3	0.862 ± 0.18
UniProt O95983 and related entries	0.981 ± 0.048

2 records picked at random from those above:
Target	NP40-soluble protein abundance
UniProt O95777 and related entries	0.959 ± 0.095
COX4I1 (UniProt P13073)	1.02 ± 0.0098
